# US20080027139A1, “Use of Alpha-Ketoglutarate and Related Compounds” (priority 2004, published 2008)
# No dose or concentration is given here for some results. Marks after values point to notes of the source that are not given here.
# Assay: Experiment II: body weight of rats on cholesterol and lard enriched fodder
# Assay type: in vivo, rat
# Details: day 120, cholesterol/lard diet, mean ± S.E.M
structure (smiles),measurement,setting,value
"O=C(O)CCC(=O)C(=O)O [AKG, alpha-ketoglutaric acid]",Body weight of rats,"female rats, AKG dose 0.1 from day 61 for 60 days",355.6 ± 6.62 g
same,Body weight of rats,"female rats, AKG dose 1.0 from day 61 for 60 days",350.8 ± 9.7 g
same,Body weight of rats,"male rats, AKG dose 0.1 from day 61 for 60 days",519.2 ± 7.39^a g
same,Body weight of rats,"male rats, AKG dose 1.0 from day 61 for 60 days",462.1 ± 0.9^b g
